Results are given in words; binding and its absence hold for the method and conditions named. In cells and extracts the contact can be indirect. Some binding calls cover weakened binding; strength is not graded here.

Amino acid sequences for entries named in this document (tags omitted). A change or cut given only in a name is not applied to a line headed by its entry.
UniProt P27986: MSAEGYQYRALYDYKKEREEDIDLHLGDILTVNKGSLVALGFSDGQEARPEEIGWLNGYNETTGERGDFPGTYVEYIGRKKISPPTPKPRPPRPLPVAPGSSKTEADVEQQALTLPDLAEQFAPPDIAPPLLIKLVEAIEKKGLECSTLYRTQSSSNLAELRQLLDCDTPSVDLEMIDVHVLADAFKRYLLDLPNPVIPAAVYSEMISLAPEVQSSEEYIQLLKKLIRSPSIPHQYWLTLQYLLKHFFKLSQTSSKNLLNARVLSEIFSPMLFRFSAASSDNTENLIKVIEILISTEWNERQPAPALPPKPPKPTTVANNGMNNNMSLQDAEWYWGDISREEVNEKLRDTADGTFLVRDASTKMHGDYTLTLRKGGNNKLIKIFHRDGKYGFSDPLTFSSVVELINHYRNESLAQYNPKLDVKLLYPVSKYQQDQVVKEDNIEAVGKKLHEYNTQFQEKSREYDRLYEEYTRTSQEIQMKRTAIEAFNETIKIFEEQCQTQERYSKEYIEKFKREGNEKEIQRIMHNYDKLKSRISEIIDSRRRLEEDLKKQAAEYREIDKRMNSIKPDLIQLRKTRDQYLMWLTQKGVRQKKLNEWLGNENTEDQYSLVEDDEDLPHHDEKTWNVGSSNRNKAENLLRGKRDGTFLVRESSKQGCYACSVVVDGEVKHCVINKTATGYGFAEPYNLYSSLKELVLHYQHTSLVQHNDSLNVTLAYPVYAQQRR
UniProt Q9D281: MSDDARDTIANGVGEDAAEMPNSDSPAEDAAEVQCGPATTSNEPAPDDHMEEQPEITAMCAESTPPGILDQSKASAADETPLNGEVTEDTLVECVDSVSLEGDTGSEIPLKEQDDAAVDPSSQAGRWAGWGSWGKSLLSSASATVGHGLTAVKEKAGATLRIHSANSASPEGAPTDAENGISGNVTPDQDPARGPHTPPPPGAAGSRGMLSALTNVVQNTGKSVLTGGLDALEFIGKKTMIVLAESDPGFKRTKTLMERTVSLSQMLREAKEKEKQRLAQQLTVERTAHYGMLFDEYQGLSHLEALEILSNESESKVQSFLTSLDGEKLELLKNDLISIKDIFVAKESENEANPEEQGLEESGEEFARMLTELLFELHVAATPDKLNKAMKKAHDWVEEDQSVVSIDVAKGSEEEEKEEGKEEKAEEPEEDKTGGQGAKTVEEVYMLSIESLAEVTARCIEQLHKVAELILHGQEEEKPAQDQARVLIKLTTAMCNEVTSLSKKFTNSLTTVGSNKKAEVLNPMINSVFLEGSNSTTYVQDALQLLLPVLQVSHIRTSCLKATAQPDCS
UniProt Q8IWE2: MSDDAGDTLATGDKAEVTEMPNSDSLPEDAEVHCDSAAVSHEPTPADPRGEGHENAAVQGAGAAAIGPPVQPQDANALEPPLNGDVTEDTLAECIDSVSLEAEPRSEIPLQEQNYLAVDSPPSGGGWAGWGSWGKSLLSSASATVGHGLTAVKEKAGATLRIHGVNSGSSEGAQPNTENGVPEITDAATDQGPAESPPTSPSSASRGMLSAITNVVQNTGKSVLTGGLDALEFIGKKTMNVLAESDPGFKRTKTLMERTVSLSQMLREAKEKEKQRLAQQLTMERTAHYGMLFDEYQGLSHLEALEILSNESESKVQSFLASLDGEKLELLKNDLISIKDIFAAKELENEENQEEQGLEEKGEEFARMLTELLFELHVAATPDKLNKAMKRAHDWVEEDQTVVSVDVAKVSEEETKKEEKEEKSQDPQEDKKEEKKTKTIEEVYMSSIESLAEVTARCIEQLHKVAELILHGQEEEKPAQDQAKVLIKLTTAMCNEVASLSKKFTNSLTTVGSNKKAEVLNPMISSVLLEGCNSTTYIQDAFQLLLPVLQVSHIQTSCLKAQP
UniProt P26450: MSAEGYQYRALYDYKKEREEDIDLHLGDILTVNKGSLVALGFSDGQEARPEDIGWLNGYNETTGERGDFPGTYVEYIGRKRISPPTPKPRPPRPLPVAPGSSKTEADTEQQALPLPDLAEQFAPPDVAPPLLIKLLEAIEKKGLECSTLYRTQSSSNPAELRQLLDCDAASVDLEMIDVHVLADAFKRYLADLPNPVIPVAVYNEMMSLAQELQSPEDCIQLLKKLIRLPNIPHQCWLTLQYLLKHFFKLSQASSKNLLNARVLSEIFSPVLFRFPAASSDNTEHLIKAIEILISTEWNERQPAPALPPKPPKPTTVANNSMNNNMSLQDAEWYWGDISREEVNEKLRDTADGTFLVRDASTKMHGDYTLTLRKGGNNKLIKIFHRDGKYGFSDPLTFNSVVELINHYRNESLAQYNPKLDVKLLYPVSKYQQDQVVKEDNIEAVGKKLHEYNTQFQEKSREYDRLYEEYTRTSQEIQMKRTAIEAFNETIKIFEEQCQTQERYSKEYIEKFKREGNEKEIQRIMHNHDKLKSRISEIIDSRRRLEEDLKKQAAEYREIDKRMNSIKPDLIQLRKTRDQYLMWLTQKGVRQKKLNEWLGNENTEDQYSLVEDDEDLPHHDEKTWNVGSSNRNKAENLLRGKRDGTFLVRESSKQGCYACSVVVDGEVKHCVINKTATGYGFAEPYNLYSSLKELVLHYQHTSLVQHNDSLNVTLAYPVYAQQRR
UniProt Q8R0K9: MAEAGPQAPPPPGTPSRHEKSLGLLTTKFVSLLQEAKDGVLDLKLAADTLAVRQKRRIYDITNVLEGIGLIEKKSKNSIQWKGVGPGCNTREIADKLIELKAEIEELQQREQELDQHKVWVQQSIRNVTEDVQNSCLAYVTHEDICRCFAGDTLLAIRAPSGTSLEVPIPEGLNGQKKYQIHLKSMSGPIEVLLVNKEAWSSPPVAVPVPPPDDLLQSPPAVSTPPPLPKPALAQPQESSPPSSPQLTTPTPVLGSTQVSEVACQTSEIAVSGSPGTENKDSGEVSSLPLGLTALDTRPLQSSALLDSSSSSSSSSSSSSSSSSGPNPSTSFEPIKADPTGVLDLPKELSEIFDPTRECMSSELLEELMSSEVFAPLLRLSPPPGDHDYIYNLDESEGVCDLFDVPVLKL
UniProt Q16254: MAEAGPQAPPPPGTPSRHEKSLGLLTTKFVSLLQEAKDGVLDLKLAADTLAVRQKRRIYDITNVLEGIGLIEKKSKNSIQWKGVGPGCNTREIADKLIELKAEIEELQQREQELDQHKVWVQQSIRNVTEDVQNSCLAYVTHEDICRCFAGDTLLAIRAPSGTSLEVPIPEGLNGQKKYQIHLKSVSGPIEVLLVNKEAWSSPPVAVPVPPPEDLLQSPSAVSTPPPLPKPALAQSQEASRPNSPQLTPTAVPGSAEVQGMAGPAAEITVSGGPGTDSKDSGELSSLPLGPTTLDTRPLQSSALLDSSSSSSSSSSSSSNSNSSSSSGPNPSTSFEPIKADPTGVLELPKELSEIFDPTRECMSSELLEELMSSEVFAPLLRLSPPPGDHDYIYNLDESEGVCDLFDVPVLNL

Assay [1] deals with p85α, wild type, transfected in 293T cells (human (cDNA from HEK293T)) (UniProt P27986). Put plainly: co-IP; competition: FAM114A1 recombinant protein in the indicated amounts added for 2 h to beads that held the p85α/p110α co-IP from cotransfected 293T cells; washed; western blot; only the binder purified. In general terms: Immunoblotting shows a protein as a band on a membrane.

Assay [2] addresses family with sequence similarity 114 member A1 (FAM114A1), endogenous in Py8119 cells (mouse (endogenous in Py8119)) (UniProt Q9D281). Put plainly: co-IP; Py8119 tumor cell lysates (IP lysis buffer: 20 mM Tris pH 7.4, 0.15 M NaCl, 1 mM EDTA, 1 mM EGTA, 1% Triton X-100) precipitated with anti-FAM114A1, anti-p85α, anti-E2F4 or IgG control overnight at 4 °C, protein A/G magnetic beads; western blot.

In assay [3] the target is FAM114A1-Myc (human (cDNA from HEK293T)) (UniProt Q8IWE2). Put plainly: co-IP; 293T cells cotransfected with the indicated plasmids, lysed 24 h after transfection; anti-Myc or anti-GFP precipitation as indicated; western blot.
In assay [4] the target is p85α, endogenous in Py8119 cells (mouse (endogenous in Py8119)) (UniProt P26450). Put plainly: co-IP; Py8119 cells stably expressing FAM114A1 (OE) or vector; p110α that interacted with p85α detected by western blot and normalised to total p110α.

Consider “GST-FAM114A1 recombinant protein (from UniProt Q8IWE2 1-563)”, for which, in assay [1], the binding entry is listed as “binds”.
Consider “p85α, endogenous in Py8119 cells (from UniProt P26450 1-724)”, for which, in assay [2], the binding result was “binds”.
On the same count and under the same terms, to “E2F Transcription Factor 4 (E2F4), endogenous in Py8119 cells (from UniProt Q8R0K9 1-410)” belongs “binds”.
Turning to “E2F4-GFP, wild type (from UniProt Q16254 1-413)”, the binding result in assay [3] is “binds”.
With “p85α, wild type, transfected in 293T cells (from UniProt P27986 1-724)”, in assay [3], the binding result is recorded as “binds”.
“FAM114A1 stably overexpressed in Py8119 cells (from UniProt Q8IWE2 1-563)”: in assay [4], the binding result is “binds”.
